No constants are given. Whether binding was seen depends on the method and setting. Some entries that bind do so weakly or less than the wild type. Sequences can lack the tags named with a protein.
What was measured:
Assay in all cases: SPR; competition: extracellular portions of BMP receptors (Fc fusions) immobilised; BMP2 or BMP6 as analyte alone or mixed with bacterial WT or W82A ERFE N-terminal segment; both purified
Activin RIA/ALK2-Fc = biological target: T1, Activin RIA/ALK2-Fc (UniProt Q04771)
T1 sequence: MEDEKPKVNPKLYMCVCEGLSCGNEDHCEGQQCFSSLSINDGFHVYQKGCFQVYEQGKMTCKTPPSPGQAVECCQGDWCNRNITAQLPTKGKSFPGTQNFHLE

By UniProt entry, the sequences of proteins in these tests, tags left out. Residues count along the entry.
UniProt P22004, residues 375-513: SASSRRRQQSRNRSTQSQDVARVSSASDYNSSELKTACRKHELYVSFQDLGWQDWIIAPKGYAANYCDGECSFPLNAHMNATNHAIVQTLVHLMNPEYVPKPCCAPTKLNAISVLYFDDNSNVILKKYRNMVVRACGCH

Activin RIIB-Fc = biological target: T2, Activin RIIB-Fc (UniProt Q13705)
T2 sequence: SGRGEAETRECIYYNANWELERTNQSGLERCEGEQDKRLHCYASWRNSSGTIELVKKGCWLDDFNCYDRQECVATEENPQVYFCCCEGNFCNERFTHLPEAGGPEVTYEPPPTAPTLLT

BMPRII-Fc = biological target: T3, BMPRII-Fc (UniProt Q13873)
T3 sequence: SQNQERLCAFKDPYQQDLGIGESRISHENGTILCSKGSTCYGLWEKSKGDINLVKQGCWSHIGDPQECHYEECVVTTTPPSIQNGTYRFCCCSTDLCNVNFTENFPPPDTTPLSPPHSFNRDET

binding (Activin RIA/ALK2-Fc): binds
binding (Activin RIIB-Fc): binds
binding (BMPRII-Fc): binds
Substance: BMP6 homodimer (from UniProt P22004 375-513) (ligand)

Source: article PMC10692919
